Source: the supplement of paper PMC10735217
Counter-ions that a name gives are not always drawn. The list shows a part of the results. Single values are uncertain here, since repeats match poorly.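 The human kidney-derived cells carry a stably integrated construct of eight TEAD-binding elements driving luciferase, read by luminescence in a drug-repurposing library screen. A compound counts as a hit when its signal is more than five robust Z scores above the plate mean.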

System: HEK293A TEAD-LUC reporter
Experiment: TEAD-luciferase reporter activity (YAP activation), robust Z score vs plate; higher = stronger YAP/TEAD activation
Conditions: 24 h

Row | Compound | TEAD-luciferase reporter activity (compound concentration: 200 nM) | TEAD-luciferase reporter activity (compound concentration: 2 uM) | TEAD-luciferase reporter activity (compound concentration: 10 uM)
1 | CCCCc1cc2c(=O)c(C(=O)OC)c[nH]c2cc1OCc1ccccc1 [Nequinate] | inactive: -0.265 | inactive: -1.18 | inactive: 0.379
2 | O=C(O)c1ccccn1 [Picolinic acid] | inactive: -0.964 | inactive: -0.692 | inactive: -1.27
3 | O=C(NCCC1CCN(CC2=Cc3ccccc3OC2)CC1)Nc1ccccc1 | inactive: -1.33 | inactive: 0.289 | inactive: 0.706
4 | CC(CCc1ccc2c(c1)OCO2)NCC(O)c1ccc(O)c(C(N)=O)c1 (stereo unspecified) [Medroxalol] | inactive: -0.703 | inactive: -0.927 | inactive: 1.13
5 | O=C(/C=C/c1ccc(O)cc1)c1ccc(O)cc1O | inactive: -1.48 | inactive: -0.877 | inactive: -0.44
6 | CC1(C)CC[C@]2(C(=O)O)CC[C@]3(C)[C@H](C(=O)C=C4[C@@]5(C)C=C(C#N)C(=O)C(C)(C)[C@@H]5CC[C@]43C)[C@@H]2C1 [bardoxolone] | inactive: 0.728 | inactive: -2.91 | inactive: -3.94
7 | C[C@@H]1CN(Cc2ccc(F)cc2)[C@@H](C)CN1C(=O)c1cc2c(C(=O)C(=O)N(C)C)cn(C)c2cc1Cl [talmapimod] | inactive: -3.66 | inactive: -1.88 | inactive: -1.09
8 | C=CCN1CCCC1CNC(=O)c1cc(S(=O)(=O)NC)c(N)cc1OC (stereo unspecified) | inactive: 0.711 | inactive: -0.395 | inactive: -0.588
9 | Cc1ccc2c(c1)nc1cc(Nc3ccc(Cl)cc3)c(=N)cc-1n2-c1ccc(Cl)cc1 | inactive: 4.11 | inactive: 0.459 | inactive: 2.49
10 | O=c1[nH]c(=O)n(C2CC(O)C(COP(=O)(O)O)O2)cc1F (stereo unspecified) | inactive: -0.332 | inactive: -1.27 | inactive: -1.54
11 | COc1cc(C(=O)NCc2ccc(OCCN(C)C)cc2)cc(OC)c1OC [Trimethobenzamide hydrochloride] | inactive: -0.0391 | inactive: -0.576 | inactive: 1.38
12 | Cc1ccc(-n2nc(C(C)(C)C)cc2NC(=O)Nc2ccc(OCCN3CCOCC3)c3ccccc23)cc1 [Doramapimod] | inactive: -1.17 | inactive: -0.936 | inactive: -0.422
13 | CS(=O)(=O)c1ccc(-c2cc(Br)sc2-c2ccc(F)cc2)cc1 | inactive: 2.52 | inactive: -1.1 | inactive: 0.56
14 | C=CC(C)(O)CCC=C(C)CCC=C(C)C (stereo unspecified) | inactive: -0.595 | inactive: 0.00145 | inactive: -1.06
15 | C=Cc1cc(O)cc2nc(-c3ccc(O)c(F)c3)oc12 [prinaberel] | inactive: -1.26 | inactive: -1.21 | inactive: -0.654
16 | OC(CNCC(O)C1CCc2cc(F)ccc2O1)C1CCc2cc(F)ccc2O1 (stereo unspecified) [nebivolol hydrochloride] |  | inactive: 0.868 | 
17 | OC(CNCC(O)C1CCc2cc(F)ccc2O1)C1CCc2cc(F)ccc2O1 (stereo unspecified) [Nebivolol HCl] | inactive: -1.16 |  | inactive: 3.67
18 | NC(=O)/N=N/C(N)=O [azodicarbonamide] | inactive: 0.0131 | inactive: 0.0973 | inactive: 0.234
19 | NC(=O)/N=N/C(N)=O |  | inactive: -0.593 | 
20 | COc1cc2c(cc1NS(=O)(=O)c1ccc(-c3ccc(Cl)s3)cc1)CCN(C)CC2 | inactive: -0.735 | inactive: -0.442 | inactive: 3.95

Row | Compound | TEAD-luciferase reporter activity (compound concentration: 200 nM) | TEAD-luciferase reporter activity (compound concentration: 2 uM) | TEAD-luciferase reporter activity (compound concentration: 10 uM)
21 | COP(=O)(OC)OC(c1ccc(Cl)cc1)P(=O)(OC)OC (stereo unspecified) [Mifobate] | inactive: -0.521 | inactive: -0.478 | inactive: 1.29
22 | CCCCCCCCc1ccc2c(c1)C(=O)c1nc3ccncc3c(=O)n1-2 | inactive: -0.905 | inactive: -0.121 | inactive: 1.34
23 | CN1C(=O)C(N2CCCCC2)S/C1=C\C(=O)O (stereo unspecified) [ozoli] | inactive: 0.427 | inactive: 0.654 | inactive: -1.03
24 | O=C(O)c1ccc2c(c1)nc(Nc1cccc(Cl)c1)c1ccncc12 [CX-4945 (Silmitasertib)] | inactive: -0.0735 |  | inactive: -0.585
25 | O=C(O)c1ccc2c(c1)nc(Nc1cccc(Cl)c1)c1ccncc12 [Silmitasertib] |  | inactive: -3.25 | 
26 | O=C(NC1CCN(c2nc3ncccc3o2)CC1)C1CCCC1 | inactive: 1.67 |  | inactive: 0.433
27 | C[C@H](Cn1cnc2c(N)ncnc21)OCP(=O)(O)O [Tenofovir (TFV)] | inactive: -0.23 |  | inactive: -1.36
28 | C[C@H](Cn1cnc2c(N)ncnc21)OCP(=O)(O)O [tenofovir (TFV)] |  | inactive: 3.38 | 
29 | COc1ccccc1OCCNCC(O)COc1cccc2[nH]nnc12 (stereo unspecified) [tribendilol] | inactive: -0.647 | inactive: 0.471 | inactive: -0.613
30 | CN1[C@@H]2CC[C@H]1C[C@@H](NC(=O)NC(=O)c1ccccc1OCC1CC1)C2 | inactive: 1.06 | inactive: -1.44 | inactive: -1.15
31 | COc1cc2c(cc1C(F)(F)F)N(C(=O)Nc1cc(F)cc(-c3cccnc3)c1)CC2 | inactive: 0.737 | inactive: 0.233 | inactive: 1.8
32 | O=C(O)CC1C2CCCC1CN(Cc1ccc3c(c1)Nc1nccnc1S3)C2 (stereo unspecified) | inactive: 2.42 | inactive: -0.197 | inactive: 0.046
33 | Cc1cc(Nc2cc(N3CCN(C)CC3)nc(/C=C/c3ccccc3)n2)n[nH]1 | inactive: -0.333 | inactive: -2.61 | inactive: -2.76
34 | CC(C)(C)c1cc(NC(=O)NCc2ccccc2Sc2ccc3nnc(-c4ccccc4SCCO)n3c2)n(-c2ccc(O)c(Cl)c2)n1 | inactive: -1.81 | inactive: -1.26 | inactive: 0.179
35 | N#Cc1ccc(Cn2cncc2CN2CCN(c3cccc(Cl)c3)C(=O)C2)cc1 | inactive: -2.31 | inactive: -1.48 | inactive: -0.0456
36 | Cc1cc(Cn2nnc3c(-c4ccco4)nc(N)nc32)ccc1N [Vipadenant] | inactive: -0.0334 | inactive: -0.579 | inactive: 0.713
37 | C[C@]12C=CC(=O)C=C1CC[C@@H]1[C@@H]2[C@@H](O)C[C@@]2(C)[C@H]1CC[C@]2(O)C(=O)COP(=O)([O-])[O-] [prednisolone sodium phosphate] | inactive: -1.55 | inactive: 0.144 | inactive: 3.01
38 | CNCc1ccc(NC(=O)c2c[nH]c3c2C(=O)CCC3)cc1 | inactive: 1.06 | inactive: -1.42 | inactive: -0.855
39 | CN(C)CCC(c1ccc(Br)cc1)c1ccccn1 (stereo unspecified) | inactive: -2.12 |  | inactive: -0.0321
40 | CN(C)CCC(c1ccc(Br)cc1)c1ccccn1 (stereo unspecified) [Brompheniramine maleate] |  | inactive: 0.335 | 

Row | Compound | TEAD-luciferase reporter activity (compound concentration: 200 nM) | TEAD-luciferase reporter activity (compound concentration: 2 uM) | TEAD-luciferase reporter activity (compound concentration: 10 uM)
41 | CC(C)(C)OC(=O)N[C@@H](Cc1ccccc1)[C@H](O)CNC[C@@H](O)[C@H](Cc1ccc(OCC(=O)N2CCOCC2)cc1)NC(=O)OC(C)(C)C | active: 5.9 | inactive: 0.389 | inactive: 0.127
42 | CC(CC(c1ccccc1)c1ccccc1)N1CCCC1 (stereo unspecified) | inactive: 0.818 | inactive: -0.897 | inactive: -1.01
43 | Cc1cn(C2CC(N=[N+]=[N-])C(CO)O2)c(=O)nc1N (stereo unspecified) | inactive: -0.41 | inactive: 2.42 | inactive: -0.225
44 | COc1cc(C(=O)N2CC(F)(F)C[C@H]2C(=O)N2CCC[C@H]2C#N)cc(OC)c1OCc1ccccc1 | inactive: 0.245 |  | inactive: -0.236
45 | CC[N+](C)(CC)CCSC1=Nc2ccccc2N=C(c2ccc(Sc3ccccc3)cc2)C1 [Tibezonium iodide] | inactive: 2.14 | inactive: 0.439 | inactive: -0.413
46 | CNCCCCOc1ccccc1Cc1ccccc1 [bifemelane] |  | inactive: -1.15 | 
47 | CNCCCCOc1ccccc1Cc1ccccc1 [Bifemelane] | inactive: -1.91 |  | inactive: -1.2
48 | CCOC(=O)CCC(N)=O | inactive: -1.98 | inactive: -2.14 | inactive: -0.185
49 | O=S(=O)(O)c1ccc2ccccc2c1 | inactive: 0.799 | inactive: -0.421 | inactive: 0.304
50 | CN(c1ccc(N2C[C@H](CN)OC2=O)cc1F)S(C)(=O)=O | inactive: -0.955 | inactive: 0.126 | inactive: -0.817
51 | CN(Cc1ccc(C(C)(C)C)cc1)Cc1cccc2ccccc12 [butenafine] |  | inactive: 0.346 | 
52 | CN(Cc1ccc(C(C)(C)C)cc1)Cc1cccc2ccccc12 [Butenafine] | inactive: 3.11 |  | inactive: 1.71
53 | CCN(CC)CCNC(=O)c1cc(Cl)c(N)cc1OC(C)C(C)=O (stereo unspecified) [Batanopride hydrochloride] | inactive: -1.59 | inactive: 1.29 | inactive: -0.41
54 | CCCCN(CCCC)C(C(N)=O)c1ccc(OC)cc1 (stereo unspecified) [Ambucetamide] | inactive: -0.582 |  | inactive: 4.4
55 | O=C(O)CCC(=O)O [succinic acid, Vecta] | inactive: 1.99 |  | inactive: -0.902
56 | O=C(O)CCC(=O)O [succinic acid] |  | inactive: -2.09 | 
57 | CCN(CC)CCNC(=O)c1ccccc1O | inactive: -1.83 | inactive: -1.22 | inactive: -1.45
58 | CCOc1ccc2cc(C(=O)Nc3nc4ccccc4[nH]3)[nH]c2c1 | inactive: -1.18 | inactive: 0.607 | inactive: 0.871
59 | C[N+]1(C)[C@@H]2C[C@H](OC(=O)C(O)(c3cccs3)c3cccs3)C[C@H]1[C@H]1O[C@H]12 [Tiotropium bromide] | inactive: -0.481 | inactive: -1.04 | inactive: -1.27

For reference, part of the list above:
Row | Compound | TEAD-luciferase reporter activity (compound concentration: 200 nM) | TEAD-luciferase reporter activity (compound concentration: 2 uM) | TEAD-luciferase reporter activity (compound concentration: 10 uM)
27 | C[C@H](Cn1cnc2c(N)ncnc21)OCP(=O)(O)O [Tenofovir (TFV)] | inactive: -0.23 |  | inactive: -1.36
28 | C[C@H](Cn1cnc2c(N)ncnc21)OCP(=O)(O)O [tenofovir (TFV)] |  | inactive: 3.38 | 
29 | COc1ccccc1OCCNCC(O)COc1cccc2[nH]nnc12 (stereo unspecified) [tribendilol] | inactive: -0.647 | inactive: 0.471 | inactive: -0.613
